## Primary screen of a compound library

The values are deposited in ChEMBL (CHEMBL3988442, “University of Dundee, Small-Polar-MMV Screening Library” (2021)).

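Whole-cell growth test on Mycobacterium tuberculosis, read after 4 days in a medium based on cholesterol and the lipid DPPC; the read-out is not stated. Compounds at 50 µM. Direction is inferred from retests: higher values go with more growth inhibition. Of about 69,000 compounds tested this way, about 370 (0.54%) reached 50% or more in at least one test.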

The filed quantity is “Percent Effect” (%). The record does not define 0% and 100%; most values in the screen are far below 50% and negative numbers occur (in some assays of this library far below -100). Compounds were drawn at random from those tested, without regard to their results. Two or more numbers in one place are separate tests of the same structure; such repeats can differ widely.

| Compound | percent effect |
|---|---|
| `CCN1CCOC(CNCc2ccccc2OCc2ccncc2)C1` (stereo unspecified) | -19.4% |
| `COC1CCN(c2ccc(NC(=O)C3CC3)cc2C(F)(F)F)CC1` | 17.86% |
| `CC(NC(=O)NCCCO)c1ccc2c(c1)OCCO2` (stereo unspecified) | 6.552% |
| `Cc1c(NC(C)C(C)C)cccc1C(=O)NCc1ccnn1C` (stereo unspecified) | 11.59% |
| `COCCN1CCCC2(CCN(c3nccnc3N(C)C)C2)C1=O` (stereo unspecified) | 9.25% |
| `CCc1noc(C(C)N2CCC(NC(=O)c3ccc(C)s3)CC2)n1` (stereo unspecified) | -7.834% |
| `CC(C)(C)NS(=O)(=O)c1ccccc1CNCc1cccc(O)c1` | -10.31% |
| `Cc1nnc(NCCc2coc(-c3ccccc3)n2)c(C#N)c1C` | 6.21% |
| `FC(F)(F)Sc1ccc(NCc2nnc(C3CC3)o2)cc1` | 52.15% |
| `NC(=O)c1cc(C2CCCN(CCOc3cccc(F)c3)C2)n[nH]1` (stereo unspecified) | -19.63% |
| `CC(C)c1noc(C2CCCN2S(=O)(=O)Cc2ccc(F)cc2)n1` (stereo unspecified) | -22.5% |
| `Cc1nnc2n1CCN(Cc1csc(CC(=O)N(C)C)n1)C2` | -8.473% |
| `CCc1nc(CN(C)C2CCN(CCCOc3ccccc3)C2)no1` (stereo unspecified) | -10.09% |
| `[H][C@@]12CCN(C(=O)CCc3csc(N)n3)C[C@@]([H])(CC1)N2C` | -12.52% |
| `CCc1c(C)sc2nc3n(CCN4CCOCC4)nc(SC)n3c(=O)c12` | -1.7% |
| `CCOc1nc2cnccc2n(CC(=O)NCc2ccc(C)cc2)c1=O` | -8.359% |
| `CC(C)c1cc(C(=O)NC2CCN(CC(N)=O)CC2)nn1C(C)(C)C` | -6.898% |
| `O=c1oc(-c2ccccc2)nn1CN1CCC(N2CCCCC2)CC1` | -20.95% |
| `CCCn1cc(C(=O)N2CCOC(c3nc(-c4cccs4)no3)C2)cn1` (stereo unspecified) | 0.1252% |
| `CN1CCN(C(=O)c2n[nH]c3c2CCN(Cc2nccs2)C3)CC1` | -7.793% and -9.165% |
| `Cn1cc(C(=O)NC2CCN(C(=O)NCC3CCSCC3)CC2)cn1` | 8.87% |
| `O=C(O)C(F)(F)F.O=C(O)C(F)(F)F.O=C(c1cnc2n1CCN(Cc1ccccc1)C2)N1CCCC1` | -5.724% and 11.23% |
| `CC(C)NC(=O)CCNC(=O)Nc1cnn(-c2ccccc2F)c1` | -15.07% |
| `Cc1cn(-c2ccccc2)nc1NS(=O)(=O)c1cc(C(=O)O)cs1` | -32.74% |
| `CN(C)c1ccc(C(=O)Nc2ccn(Cc3ccccn3)n2)cn1` | 19.71% |
| `Cn1cnc2ccc(NC(=O)CC3CCN(S(C)(=O)=O)CC3)cc21` | -26.78% and -10.6% |
| `O=C(CSC1=NS(=O)(=O)c2cc(F)ccc2N1)c1ccc(Cl)cc1` | -18.43% |
| `Cc1nc(N2CC[C@@H](c3ccc4ccccc4c3)[C@H](O)C2)no1` | 6.429% |
| `CN(Cc1ccsc1)Cc1ccc(C2CCCCO2)o1` (stereo unspecified) | 1.833% |
| `C/C=C(\C)CN(CCN1CCOCC1)Cc1ccco1` | 11.89% |
| `Cc1ccc(C#N)c(N2CCC(c3nccn3CCN(C)C)CC2)n1` | -3.215% |
| `Cc1cnc(CC2COCCN(C(=O)c3cncs3)C2)cn1` (stereo unspecified) | 25.76% and 6.326% |
| `COc1cccc(C(=O)NCC2CCN(C(=O)c3ccoc3)CC2)c1` | 1.339% |
| `CCN1CCC2(CCN(Cc3nccs3)CC2)C1=O.O=C(O)C(F)(F)F` | 18.03% |
| `N#CCCN(Cc1cccnc1)C(=O)c1ccc(OCC2CC2)cc1` | -8.216% and 5.957% |
| `c1ccc(NCCn2cc(C3CCCNC3)nn2)cc1` (stereo unspecified) | 9.357% |
| `CN1CCC(N(C)C[C@H]2CC[C@@H](Cc3cccc(O)c3)O2)CC1` | -50.79% |
| `Cc1nc(SCC(=O)Nc2ccc(C(N)=O)cc2)c(C#N)c(C)c1C` | -25.83% |
| `Cn1cc(CN2CCCC3(CCN(c4cccnc4)C3=O)C2)cn1` (stereo unspecified) | -24.45% |
| `Cc1cn(Cc2nc(CC(C)C)nn2-c2ccccn2)c(=O)[nH]c1=O` | -13.32% and 43.92% |
| `O=C(NCCC(=O)N1CCCc2ccccc21)c1c(O)cc(F)cc1F` | 12.59% |
| `CC(C)CC(=O)N1CCCC1c1cc(CO)[nH]n1` (stereo unspecified) | -5.517% and -2.915% |
| `O=C(O)C(F)(F)F.[H][C@@]12COC[C@]1(COCC)CN(Cc1cccc(OC)c1)C2` | -15.29% |
| `COc1ccc(C(C)NC(=O)C2CCN(S(C)(=O)=O)CC2)cc1C` (stereo unspecified) | -7.93% |
| `CN(C)c1cccc(C(=O)N2CCCSCC2CN2CCCC2)c1` (stereo unspecified) | 5.086% |
| `O=C(CCn1cncn1)N1CC[C@@H](c2ccc3ccccc3c2)[C@H](O)C1` | 6.822% |
| `CNC(=O)c1cccc(NC(=O)NCc2ccccc2)c1C` | -11.94% |
| `Cn1cnc(S(=O)(=O)NCC2CCN(C(=O)Oc3ccccc3)CC2)c1` | -1.397% |
| `COCCN1CCC(c2cncc(-c3cccc(Cl)c3)n2)CC1` | 11.16% |
| `O=S(=O)(NC1=NCN(CCc2ccccc2)CN1)c1ccc(F)cc1` | -19.3% |
| `O=C(CN1CCS(=O)(=O)CC1)NC1CCCOc2ccccc21` (stereo unspecified) | -6.212% |
| `O=C(NC[C@H]1O[C@H](Cc2cc(-c3ccccn3)on2)CC[C@@H]1O)C1CC1` | -26.17% |
| `Cn1ncc(Cl)c1C(=O)NCCN1CCC(O)(c2ccc(F)cc2)CC1` | -14.04% and 0.329% |
| `COc1ccc(-c2n[nH]cc2CN(C)Cc2ccoc2)c(F)c1` | -5.06% |
| `Cc1cc(N2CCN(Cc3ccnn3C)CC2)cc(C2CCCN2)n1.Cl` (stereo unspecified) | 4.637% and -9.136% |
| `c1cnnc(N2CCCC(NCc3cccc4c3OCCO4)C2)c1` (stereo unspecified) | -23.46% |
| `Cn1nccc1C(=O)N1CCCN(CCCc2ccccc2)CC1` | -8.688% and -3.51% |
| `O=c1c2sccc2nc2n1CCN(Cc1cccs1)CC2` | 5.917% |
| `O=C(O)C(F)(F)F.[H][C@]12CCN(c3ncc(C)cn3)[C@@]1([H])CC[C@H](COCC(=O)N(C)C)O2` | -0.6624% |
| `[H][C@]12CC[C@]([H])(CN(C3Cc4ccccc4C3)C1)N(C(=O)CCOC)C2` | 21.01% |
| `Cc1c(CN2CCCCC2)c(O)n(CCCO)c(=O)c1C#N` | 1.152% |
| `Cn1cc(C(=O)NCc2cn3c(n2)CN(CC2CCOCC2)CC3)cn1.O=C(O)C(F)(F)F` | -28.88% and -9.981% |
| `C[S+]([O-])c1nncn1CCc1ccccc1` (stereo unspecified) | -22.84% |
| `NC(=O)C1CCN(C(=O)NCc2ccccc2Cn2ccnc2)CC1` | -11.78% and 2.69% |
| `[H][C@]12C[C@H](NC(=O)c3ccn(C)n3)[C@@]1([H])CN(S(=O)(=O)c1ccc(C)cc1)C2` | -5.006% |
| `c1ccc(Cc2noc(CN3CCCCC3Cn3cncn3)n2)cc1` (stereo unspecified) | -22.76% |
| `CCOCc1ccccc1NC(=O)NCC(c1cnn(C)c1)N(C)C` (stereo unspecified) | -0.9974% |
| `Cc1ccc(NC2CCN(C(=O)c3cccc4c3ccn4C)CC2)nn1` | -8.442% |
| `NC(=O)CCCNC(=O)c1cc(Br)c2c(c1)OCCO2` | 5.402% |

Once more, the final 5:

{"compound": "[H][C@]12C[C@H](NC(=O)c3ccn(C)n3)[C@@]1([H])CN(S(=O)(=O)c1ccc(C)cc1)C2", "percent effect": -5.006}
{"compound": "c1ccc(Cc2noc(CN3CCCCC3Cn3cncn3)n2)cc1", "stereo": "stereo unspecified", "percent effect": -22.76}
{"compound": "CCOCc1ccccc1NC(=O)NCC(c1cnn(C)c1)N(C)C", "stereo": "stereo unspecified", "percent effect": -0.9974}
{"compound": "Cc1ccc(NC2CCN(C(=O)c3cccc4c3ccn4C)CC2)nn1", "percent effect": -8.442}
{"compound": "NC(=O)CCCNC(=O)c1cc(Br)c2c(c1)OCCO2", "percent effect": 5.402}